Test [1] addresses endogenous ATM immunoprecipitated from cells of FIG. 5I (UniProt Q13315). Description: co-immunoprecipitation: ATM IP from treated cells, immunoblot for TBK1 (FIG. 5I). In general terms: In western blotting, separated proteins are transferred to a membrane and probed.
Test [2] has the same target. Description: co-immunoprecipitation: ATM IP from treated cells, immunoblot for TBK1.

Protein sequences, listed by entry. Tags and fused reporters are not part of them. Residues count along the entry.
UniProt Q13315, residues 2-3056: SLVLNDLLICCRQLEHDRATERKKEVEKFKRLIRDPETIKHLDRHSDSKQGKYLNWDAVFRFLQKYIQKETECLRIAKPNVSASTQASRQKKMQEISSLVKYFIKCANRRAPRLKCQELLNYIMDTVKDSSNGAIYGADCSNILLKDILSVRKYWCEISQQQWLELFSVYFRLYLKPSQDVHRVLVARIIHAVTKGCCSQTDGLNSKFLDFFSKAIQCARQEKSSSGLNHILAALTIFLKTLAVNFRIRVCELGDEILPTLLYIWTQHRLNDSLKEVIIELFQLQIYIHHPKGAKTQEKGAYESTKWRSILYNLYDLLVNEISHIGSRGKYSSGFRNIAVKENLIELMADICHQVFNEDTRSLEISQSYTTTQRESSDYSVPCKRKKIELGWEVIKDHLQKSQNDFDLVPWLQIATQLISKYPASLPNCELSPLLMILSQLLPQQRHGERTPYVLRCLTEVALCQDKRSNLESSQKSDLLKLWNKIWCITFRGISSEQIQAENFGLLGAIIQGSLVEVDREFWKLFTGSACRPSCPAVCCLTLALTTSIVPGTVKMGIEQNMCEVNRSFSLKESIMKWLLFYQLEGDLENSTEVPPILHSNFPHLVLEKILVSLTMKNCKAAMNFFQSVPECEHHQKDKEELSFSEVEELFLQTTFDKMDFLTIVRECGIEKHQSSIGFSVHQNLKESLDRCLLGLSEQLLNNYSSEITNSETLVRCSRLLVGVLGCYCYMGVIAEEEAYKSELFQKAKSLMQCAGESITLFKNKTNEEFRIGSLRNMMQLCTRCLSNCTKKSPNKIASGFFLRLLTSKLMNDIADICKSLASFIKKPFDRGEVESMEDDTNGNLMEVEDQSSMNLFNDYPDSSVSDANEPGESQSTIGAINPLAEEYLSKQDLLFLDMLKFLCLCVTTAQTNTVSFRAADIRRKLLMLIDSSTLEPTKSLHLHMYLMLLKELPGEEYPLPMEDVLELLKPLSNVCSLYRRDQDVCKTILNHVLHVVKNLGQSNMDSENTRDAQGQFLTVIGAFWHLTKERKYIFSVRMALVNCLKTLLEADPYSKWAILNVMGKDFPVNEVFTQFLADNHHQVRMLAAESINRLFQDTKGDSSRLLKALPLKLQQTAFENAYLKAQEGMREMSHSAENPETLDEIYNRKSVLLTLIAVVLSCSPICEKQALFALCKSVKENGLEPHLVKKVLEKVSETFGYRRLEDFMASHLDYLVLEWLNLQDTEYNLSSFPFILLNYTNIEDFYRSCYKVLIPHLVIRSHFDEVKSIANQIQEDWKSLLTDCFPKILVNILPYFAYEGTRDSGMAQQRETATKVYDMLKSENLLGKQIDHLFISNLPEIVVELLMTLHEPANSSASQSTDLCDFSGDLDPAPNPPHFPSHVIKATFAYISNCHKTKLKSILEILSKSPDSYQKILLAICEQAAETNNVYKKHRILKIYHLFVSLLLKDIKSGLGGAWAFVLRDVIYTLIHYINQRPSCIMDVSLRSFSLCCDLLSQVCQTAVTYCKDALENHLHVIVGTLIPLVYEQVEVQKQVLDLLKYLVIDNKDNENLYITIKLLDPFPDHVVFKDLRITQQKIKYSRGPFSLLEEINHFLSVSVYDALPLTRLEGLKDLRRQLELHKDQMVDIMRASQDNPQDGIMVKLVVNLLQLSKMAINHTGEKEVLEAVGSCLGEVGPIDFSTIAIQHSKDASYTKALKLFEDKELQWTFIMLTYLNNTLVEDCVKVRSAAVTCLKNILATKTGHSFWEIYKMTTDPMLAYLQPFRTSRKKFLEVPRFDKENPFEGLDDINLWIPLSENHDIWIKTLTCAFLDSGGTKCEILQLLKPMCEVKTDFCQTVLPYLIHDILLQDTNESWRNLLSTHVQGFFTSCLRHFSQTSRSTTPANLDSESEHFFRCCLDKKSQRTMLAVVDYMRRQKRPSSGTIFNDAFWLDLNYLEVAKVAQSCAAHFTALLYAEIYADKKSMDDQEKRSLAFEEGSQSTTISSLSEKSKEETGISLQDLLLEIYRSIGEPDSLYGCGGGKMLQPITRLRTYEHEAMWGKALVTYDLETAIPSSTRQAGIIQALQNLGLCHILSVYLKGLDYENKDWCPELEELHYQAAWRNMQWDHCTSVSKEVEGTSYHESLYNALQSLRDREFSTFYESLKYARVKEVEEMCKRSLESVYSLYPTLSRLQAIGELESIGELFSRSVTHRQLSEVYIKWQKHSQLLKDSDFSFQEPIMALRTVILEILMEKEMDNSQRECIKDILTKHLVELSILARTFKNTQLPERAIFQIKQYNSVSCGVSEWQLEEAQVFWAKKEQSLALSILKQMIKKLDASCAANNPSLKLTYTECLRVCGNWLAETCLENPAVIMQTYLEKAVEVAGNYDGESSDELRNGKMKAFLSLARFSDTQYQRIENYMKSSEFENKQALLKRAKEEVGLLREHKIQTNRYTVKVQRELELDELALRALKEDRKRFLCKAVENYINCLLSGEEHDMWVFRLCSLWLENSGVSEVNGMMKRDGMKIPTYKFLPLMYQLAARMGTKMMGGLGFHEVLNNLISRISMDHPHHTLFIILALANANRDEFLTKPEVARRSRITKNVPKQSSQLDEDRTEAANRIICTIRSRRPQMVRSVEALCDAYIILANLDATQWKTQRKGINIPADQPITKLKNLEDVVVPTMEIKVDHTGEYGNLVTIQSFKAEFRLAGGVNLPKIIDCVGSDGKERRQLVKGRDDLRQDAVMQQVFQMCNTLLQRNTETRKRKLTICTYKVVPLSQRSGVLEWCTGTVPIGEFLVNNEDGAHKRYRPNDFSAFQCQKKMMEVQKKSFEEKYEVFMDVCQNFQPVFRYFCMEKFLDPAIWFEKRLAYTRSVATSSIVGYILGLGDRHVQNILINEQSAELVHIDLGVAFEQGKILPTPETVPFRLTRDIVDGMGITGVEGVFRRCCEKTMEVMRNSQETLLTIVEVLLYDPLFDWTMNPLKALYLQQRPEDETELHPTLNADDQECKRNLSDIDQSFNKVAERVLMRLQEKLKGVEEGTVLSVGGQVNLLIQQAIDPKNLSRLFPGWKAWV

Results are given in words; binding and its absence hold for the method and conditions named. In cells and extracts the contact can be indirect. Some entries that bind do so weakly or less than the wild type.

B1: endogenous TBK1 in cells of FIG. 5I (enzyme, UniProt Q9UHD2 1-729, looked up)
chain: MQSTSNHLWLLSDILGQGATANVFRGRHKKTGDLFAIKVFNNISFLRPVDVQMREFEVLKKLNHKNIVKLFAIEEETTTRHKVLIMEFCPCGSLYTVLEEPSNAYGLPESEFLIVLRDVVGGMNHLRENGIVHRDIKPGNIMRVIGEDGQSVYKLTDFGAARELEDDEQFVSLYGTEEYLHPDMYERAVLRKDHQKKYGATVDLWSIGVTFYHAATGSLPFRPFEGPRRNKEVMYKIITGKPSGAISGVQKAENGPIDWSGDMPVSCSLSRGLQVLLTPVLANILEADQEKCWGFDQFFAETSDILHRMVIHVFSLQQMTAHKIYIHSYNTATIFHELVYKQTKIISSNQELIYEGRRLVLEPGRLAQHFPKTTEENPIFVVSREPLNTIGLIYEKISLPKVHPRYDLDGDASMAKAITGVVCYACRIASTLLLYQELMRKGIRWLIELIKDDYNETVHKKTEVVITLDFCIRNIEKTVKVYEKLMKINLEAAELGEISDIHTKLLRLSSSQGTIETSLQDIDSRLSPGGSLADAWAHQEGTHPKDRNVEKLQVLLNCMTEIYYQFKKDKAERRLAYNEEQIHKFDKQKLYYHATKAMTHFTDECVKKYEAFLNKSEEWIRKMLHLRKQLLSLTNQCFDIEEEVSKYQEYTNELQETLPQKMFTASSGIKHTMTPIYPSSNTLVEMTLGMKKLKEEMEGVVKELAENNHILERFGSLTMDGGLRNVDCL
For B1, the binding entry in test [1] and in test [2] was “binds” throughout.

The values are drawn from patent US20240335465A1 (University of Virginia Patent Foundation, priority 2021, published 2024).
